{"source": "PubChem BioAssay AID686937, Drosophila RNAi Screening Center | 2013", "aim": "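Knock-downs that reduce output of a secreted reporter enzyme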 (primary screen)", "cell system": "Drosophila S2 cells expressing secreted horseradish peroxidase", "reagent": "long dsRNA against Drosophila genes", "duration": "about 5.5 days (5 days dsRNA, then 12 h reporter induction)", "challenge": "reporter expression induced after 5 days of dsRNA, read 12 h later; inducer not stated", "read-out": "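Chemiluminescent measurement of peroxidase in the medium 12 h after reporter induction, following 5 days of dsRNA, given as a z-score per plate; higher means more secretion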", "direction": "z-score: higher = more reporter secreted into medium", "note": "The deposit covers about 23,000 reagents; below is an unselected part of those that have a named target and a result. 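Reduced-secretion tags in replicate 1 do not always agree with the z-scores; no criterion for assigning the tags was given.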 Reagents against one gene are numbered here. Not all columns of the deposit are shown. Not given: the amount of reagent."}
{"gene": "CalpB (Calpain-B)", "dsRNA no.": 1, "z-score, replicate 1": 0.25}
{"gene": "CG3603", "dsRNA no.": 1, "z-score, replicate 1": 0.25}
{"gene": "CG33631", "dsRNA no.": 1, "z-score, replicate 1": 0.2}
{"gene": "ms(2)34Fe (male sterile (2) 34Fe)", "dsRNA no.": 1, "z-score, replicate 1": -0.17}
{"gene": "CG14777", "dsRNA no.": 1, "z-score, replicate 1": 0.18}
{"gene": "Pus1 (Pseudouridine synthase 1)", "dsRNA no.": 1, "z-score, replicate 1": 0.23}
{"gene": "CG32453", "dsRNA no.": 1, "z-score, replicate 1": -0.59}
{"gene": "eya (eyes absent)", "dsRNA no.": 1, "z-score, replicate 1": 0.23}

The list goes on (2 carried over from the part before).
{"gene": "CG32453", "dsRNA no.": 1, "z-score, replicate 1": -0.59}
{"gene": "eya (eyes absent)", "dsRNA no.": 1, "z-score, replicate 1": 0.23}
{"gene": "CG9101", "dsRNA no.": 1, "z-score, replicate 1": 0.66}
{"gene": "l(3)87Df (lethal (3) 87Df)", "dsRNA no.": 1, "z-score, replicate 1": 0.45}
{"gene": "VGAT (Vesicular GABA Transporter)", "dsRNA no.": 1, "z-score, replicate 1": 0.28}
{"gene": "AdoR (Adenosine receptor)", "dsRNA no.": 1, "z-score, replicate 1": -0.21}
{"gene": "CG4892", "dsRNA no.": 1, "z-score, replicate 1": -0.52}
{"gene": "Rint1 (RAD50 interactor 1)", "dsRNA no.": 1, "z-score, replicate 1": -4.69}
{"gene": "nw (narrow)", "dsRNA no.": 1, "z-score, replicate 1": 0.36}
{"gene": "nw (narrow)", "dsRNA no.": 2, "z-score, replicate 1": 0.4}
{"gene": "nw (narrow)", "dsRNA no.": 3, "z-score, replicate 1": 0.08}
